Reference: PubChem BioAssay AID1671190 (National Center for Advancing Translational Sciences (NCATS), 2021)
Out of some 580,000 compounds screened, about 6,100 (1.1%) were called active. Inconclusive means that the source gave no clear call. Such entries were picked first, then a sample of the others. Calls come from the whole dose curve; as a rule, active = well fitted inhibition curve with a large enough effect; inconclusive = small, poorly fitted or top-dose-only effect, or another doubt; inactive = no such curve, though single readings can be large or run the other way. A potency beside an inconclusive call is a rough fit, not a confirmed value.

Protein sequences, listed by entry. Tags and fused reporters are not part of them.
UniProt P18054, whole entry, looked up: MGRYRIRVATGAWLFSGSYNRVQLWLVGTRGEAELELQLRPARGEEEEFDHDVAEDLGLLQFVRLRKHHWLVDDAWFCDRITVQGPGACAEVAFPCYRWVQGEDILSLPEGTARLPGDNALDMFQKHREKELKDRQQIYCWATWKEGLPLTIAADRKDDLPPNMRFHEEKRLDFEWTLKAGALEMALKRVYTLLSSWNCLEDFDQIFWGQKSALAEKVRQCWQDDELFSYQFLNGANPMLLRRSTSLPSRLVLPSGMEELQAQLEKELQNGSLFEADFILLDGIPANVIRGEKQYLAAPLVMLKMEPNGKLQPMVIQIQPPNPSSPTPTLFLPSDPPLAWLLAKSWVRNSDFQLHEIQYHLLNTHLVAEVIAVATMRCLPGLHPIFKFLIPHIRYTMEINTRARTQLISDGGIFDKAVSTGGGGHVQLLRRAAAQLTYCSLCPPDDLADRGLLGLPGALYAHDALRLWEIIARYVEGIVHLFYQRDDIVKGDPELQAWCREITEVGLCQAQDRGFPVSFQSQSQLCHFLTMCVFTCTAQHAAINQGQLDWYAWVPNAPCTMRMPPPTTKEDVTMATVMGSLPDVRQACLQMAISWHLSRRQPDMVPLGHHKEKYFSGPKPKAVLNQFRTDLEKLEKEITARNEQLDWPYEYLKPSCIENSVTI

target: Polyunsaturated fatty acid lipoxygenase ALOX12 (Homo sapiens) (UniProt P18054); assay: Primary qHTS assay for inhibitors of human arachidonate 12S-lipoxygenase (ALOX12): Round 2; details: purified 12hLO, xylenol orange hydroperoxide absorbance; activity change, negative = inhibition: at 108 µM (top of the series) unless noted
How it was run: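 Purified human 12hLO (150 nM final) in 25 mM Hepes, 0.01% Triton X-100, pH 7.0 was preincubated 15 min at room temperature with compound. Then 40 uM arachidonic acid was added, 30 min. Hydroperoxide was read by Fe-XO absorbance ratio 573/405 nm.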
% is set by controls: 0 for no effect and ±100 for the full control effect; potency is the fitted concentration of half-maximal effect.

Row | Structure (SMILES) | Potency | activity change, negative = inhibition
1 | Cc1cc(Br)ccc1OCCCCNC(C)(C)C | inconclusive: 4.47 µM [inhibitor, full curve, poor fit] | –
2 | CC(C)(C)c1ccc(CN(Cc2ccccc2)C(c2ccccn2)c2nnnn2C(C)(C)C)cc1 (centres undefined) | inconclusive: 56.2 µM [inhibitor, partial curve, poor fit] | –
3 | COc1cccc2cc(C(=O)Nc3ccccc3Oc3ccccc3)c(=O)oc12 | inconclusive: 35.5 µM [inhibitor, partial curve, poor fit] | –
4 | COCc1noc([C@@H]2CN(Cc3cn(C)c4ccc(OC)cc34)C[C@H]2C(N)=O)n1 | – | inactive: 28.3%
5 | Cc1c(C)n(CCc2ccccc2)c2ncnc(NCCO)c12 | – | inactive: -11.9%
6 | COc1cccc(CN2CCN(Cc3cccc(Br)c3)CC2)c1OC | inconclusive: 0.141 µM [inhibitor, full curve, poor fit] | –
7 | Cc1ccc(NC(=O)CN2C(=O)C3C4C=CC(C4)C3C2=O)cc1S(=O)(=O)N(C)C (centres undefined) | inconclusive: 44.7 µM [inhibitor, partial curve, poor fit] | –
8 | Cc1nc(C2CC2)ncc1C(=O)O | inconclusive: 31.6 µM [inhibitor, partial curve, poor fit] | –
9 | O=S(=O)(Nc1cc(Sc2ncn[nH]2)c(O)c2ccccc12)c1ccccc1 | inconclusive: 1.12 µM [inhibitor, full curve, poor fit] | –
10 | Cc1ccc(-n2ncc3c2CC(C)(C)CC3NC(=O)CCCN2CCCCC2=O)cc1 (centres undefined) | – | inactive: 3.92%
11 | Nc1nc(SCC(=O)c2ccc(F)cc2)n[nH]1 | – | inactive: 5.63%
12 | C=CCn1c2[n+](c3ccccc3c1=O)CCCCC2 | inconclusive: 35.5 µM [inhibitor, partial curve] | –
13 | Cc1ccc(S(=O)(=O)N(C)C)cc1NC(=O)c1c(-c2c(F)cccc2Cl)noc1C | inconclusive: 112 µM [inhibitor, partial curve, poor fit] | –
14 | Cn1c(=O)c2c(SCC(=O)NCc3ccc(F)cc3)nc(-c3ccccc3Cl)nc2n(C)c1=O | inconclusive: 63.1 µM [inhibitor, partial curve, poor fit] | –
15 | COCCNc1nc(Oc2ccc(Cl)c(Cl)c2)c2sccc2n1 | inconclusive: 89.1 µM [inhibitor, single point] | –
16 | CC(=O)C(=Cc1ccc(C(=O)O)cc1)C(C)=O | – | inactive: -29.7%
17 | Cc1ccc(NS(=O)(=O)c2ccc3c(c2)[C@H]2C=CC[C@H]2[C@@H](c2ccc(F)cc2)N3)cc1C | inconclusive: 35.5 µM [inhibitor, partial curve, poor fit] | –
18 | Cc1[nH]nc(SCC(=O)N2CCCC2)c1[N+](=O)[O-] | – | inactive: 22.5%
19 | COc1ccc(-c2c[n+](CC(=O)N3c4ccccc4Sc4ccccc43)c3n2CCC3)cc1 | inconclusive: 126 µM [inhibitor, partial curve, poor fit] | –
20 | Cc1cc(/C=C2/NC(=O)NC2=O)c(C)n1-c1sc2c(c1C#N)CCCC2 | inconclusive: 44.7 µM [inhibitor, partial curve, poor fit] | –
22 | Cc1ccc2cc(C(=O)NCC3COc4ccccc4O3)c(C)nc2c1 (centres undefined) | inconclusive: 100 µM [inhibitor, single point] | –
23 | CC(NCc1ccccc1C#N)c1ccccc1F (centres undefined) | active: 39.8 µM | –

3 entries from above, in CSV form.
Row,Structure (SMILES),Potency,"activity change, negative = inhibition"
7,Cc1ccc(NC(=O)CN2C(=O)C3C4C=CC(C4)C3C2=O)cc1S(=O)(=O)N(C)C (centres undefined),"inconclusive: 44.7 µM [inhibitor, partial curve, poor fit]",–
8,Cc1nc(C2CC2)ncc1C(=O)O,"inconclusive: 31.6 µM [inhibitor, partial curve, poor fit]",–
9,O=S(=O)(Nc1cc(Sc2ncn[nH]2)c(O)c2ccccc12)c1ccccc1,"inconclusive: 1.12 µM [inhibitor, full curve, poor fit]",–

More results:

Row | Structure (SMILES) | Potency | activity change, negative = inhibition
24 | CCN(Cc1cccc(F)c1)C(=O)Nc1ccc(N2CCN(C)CC2)cc1 | inconclusive: 44.7 µM [inhibitor, partial curve, poor fit] | –
25 | O=c1cc(CN2CCc3ccccc32)c2ccc(O)cc2o1 | inconclusive: 79.4 µM [inhibitor, partial curve, poor fit] | –
26 | COc1ccc(Nc2cc(C)c3cc(NC(=O)COc4cccc(C)c4)ccc3n2)cc1 | inconclusive: 4.47 µM [inhibitor, partial curve, poor fit] | –
27 | Cc1ccc(O)c(CNc2nc3ccccc3n2C)c1 | inconclusive: 112 µM [inhibitor, single point] | –
28 | CC(C)NS(=O)(=O)c1ccc(NC(=S)NC(=O)c2cccc([N+](=O)[O-])c2)cc1 | inconclusive: 35.5 µM [inhibitor, partial curve] | –
29 | Cc1cccc(Oc2cc(NC(=O)Cn3cnc([N+](=O)[O-])n3)cc([N+](=O)[O-])c2)c1 | inconclusive: 44.7 µM [inhibitor, partial curve, poor fit] | –
30 | O=C(NCc1ccc2c(c1)OCO2)c1cc(=O)c2ccccc2o1 | inconclusive: 28.2 µM [inhibitor, partial curve, poor fit] | –
31 | O=C(O)c1ccc(N/N=C/c2ccc(C(F)(F)F)cc2)cc1 | inconclusive: 100 µM [inhibitor, single point] | –
32 | CCOc1ccccc1NC(=O)CN(c1cc(C)cc(C)c1)S(=O)(=O)c1c(C)nn(C)c1C | inconclusive: 141 µM [inhibitor, partial curve, poor fit] | –
33 | O=C1N(Cc2ccc(Cl)cc2)CCCN1c1cccc(C(=O)N2CCc3ccccc32)c1 | inconclusive: 89.1 µM [inhibitor, partial curve, poor fit] | –
34 | CCN1C(=O)/C(=C/C=C2/Sc3ccc4ccccc4c3N2CCO)SC1=S | – | inactive: -19.5%
35 | CCn1nc(C)c(CNC(=O)Nc2ccc(OC)cc2OC)c1C | – | inactive: 1.29%
36 | C=CCNC(=S)N/N=C(\C)c1cccc(NC(C)=O)c1 | inconclusive: 50.1 µM [inhibitor, partial curve, poor fit] | –
37 | CCN(CC)CCOc1ccc(/C(=C(/Cl)c2ccccc2)c2ccccc2)cc1 | inactive | –
38 | O=C(O)/C=C/c1cc(Cl)ccc1OCc1ccc(Cl)cc1 | inconclusive: 50.1 µM [inhibitor, partial curve, poor fit] | –
39 | CCCn1nc(C(=O)N(CCOC)Cc2cccs2)c2ccccc2c1=O | – | inactive: 49.1%
40 | COc1ccc(N2C(=O)CS(=O)C(c3ccccc3)C2=O)cc1 (centres undefined) | inconclusive: 25.1 µM [inhibitor, partial curve] | –
41 | O=C(Cc1ccc(Cl)cc1)Nc1cc(Cl)ccn1 | inconclusive: 50.1 µM [inhibitor, partial curve, poor fit] | –
42 | COc1cc(CC(=O)OCc2c(Cl)cccc2Cl)cc(OC)c1OC | – | inactive: 35.1%
43 | CC(C)(C)n1nnnc1C(c1cccs1)N(Cc1ccc(Cl)cc1)CC1CCCO1 (centres undefined) | – | inactive: 0%
44 | COc1cccc(CN2CCNC(=O)C2CC(=O)N(C)C2CCOCC2)c1OC (centres undefined) | inconclusive: 2.24 µM [inhibitor, full curve, poor fit] | –
45 | Cc1nn(C(C)C(=O)N2CCc3ccccc3C2)c(=O)c2cc3occc3n12 (centres undefined) | inconclusive: 56.2 µM [inhibitor, partial curve, poor fit] | –
46 | COC(=O)c1cc(-c2ccc(Cl)cc2)on1 | inconclusive: 0.316 µM [inhibitor, full curve, poor fit] | –

Row | Structure (SMILES) | Potency | activity change, negative = inhibition
47 | COc1cccc(-n2c(Cc3cc(=O)[nH]c(=O)[nH]3)nnc2SC(C)C)c1 | – | inactive: -10.2%
48 | COc1ccc(-c2noc(CCC(=O)N3CCN(c4ccc(F)cc4)CC3)n2)cc1 | – | inactive: -16%
49 | Cc1nc(-c2ccc(-c3ccon3)s2)no1 | inconclusive: 100 µM [inhibitor, single point] | –
50 | COCCN(CC(=O)Nc1cccc(C)c1C)C(=O)c1cc2c(s1)CCC2 | – | inactive: 4.9%
51 | Cc1ccc(-c2nnc(Nc3ccc(O)cc3)c3ccccc23)cc1S(=O)(=O)NC(C)(C)CO | inconclusive: 100 µM [inhibitor, partial curve, poor fit] | –
52 | CC(O)Cc1cn([C@@H](CCCCN)C(=O)N2CCNCC2)nn1 (some centres undefined) | inconclusive: 44.7 µM [inhibitor, partial curve, poor fit] | –
53 | O=C(NCCc1ccccc1)C1CCN(Cc2cccc3ccccc23)CC1 | inconclusive: 0.251 µM [inhibitor, full curve, poor fit] | –
54 | COc1ccccc1N1CCN(C(=O)c2ccc3noc(-c4ccccc4)c3c2)CC1 | – | inactive: 3.31%
55 | CCC(C)NC(=O)c1ccc(COc2ccccc2Cl)cc1 (centres undefined) | – | inactive: -0.444%
56 | O=C(NC1CCSc2ccccc21)c1cc(S(=O)(=O)N2CCOCC2)ccc1F (centres undefined) | – | inactive: 0%
57 | COCCn1c(C)c(C)c(S(=O)(=O)c2ccc(F)cc2)c1NC(=O)C1CCCO1 (centres undefined) | – | inactive: -6.8%
58 | CC(Sc1n[nH]c(-c2cccs2)n1)C(=O)Nc1c(F)cccc1F (centres undefined) | – | inactive: -25%
59 | CC(C)Oc1nnc(SCC(=O)Nc2ccccc2Cl)s1 | – | inactive: -33.2%
60 | Cn1c(SCc2cc(Cl)c3c(c2)OCCCO3)nnc1-c1ccncc1 | – | inactive: 2.54%
61 | Cc1cccc(Oc2c(C(F)(F)F)oc3cc(OCC(=O)OCc4ccccc4)ccc3c2=O)c1 | – | inactive: -44.7%
62 | O=C(N/N=C/c1cccs1)c1ccc(NC(=O)c2ccccc2)cc1 | – | inactive: 20.6%
63 | COc1ccc([C@@H]2[C@@H]3C(=O)N(C(C)(C)C)C(=O)[C@@H]3[C@]3(Cc4ccc(Cl)cc4)C(=O)N(c4ccc(Br)cc4)C(=O)N23)cc1 | inconclusive: 39.8 µM [inhibitor, partial curve, poor fit] | –
64 | c1ccc2sc(N3CCN(Cc4cc5n(n4)CCCNC5)CC3)nc2c1 | inconclusive: 11.2 µM [inhibitor, full curve] | –
65 | CCOc1cc(C(=O)Nc2ccc3nc(N4CCN(C)CC4)cc(C)c3c2)cc(OCC)c1OCC | – | inactive: -22%
66 | CCCCn1c(=O)c2ccccc2n2c(=S)[nH]nc12 | active: 6.31 µM | –
67 | CCCOCC1CC(CCc2nc(=S)[nH][nH]2)C(=O)O1 (centres undefined) | inconclusive: 4.47 µM [inhibitor, full curve, poor fit] | –
68 | Cc1ccc2c(=O)cc(C(=O)Nc3cccc(C(F)(F)F)c3)oc2c1 | – | inactive: 20.1%
69 | Cc1cc(C)n2c(NC3CCCCC3)c(CC(C)C)nc2n1 | inconclusive: 31.6 µM [inhibitor, single point] | –
